Measurements from patent publication US12516015B2 (AMALIVE LIMITED, priority 2009, dated 2026).
Read-outs that look alike come from different tables or passages of the source.

How the values were obtained:
[1] = not given; remark: listed apart in the source

With `NCCC[C@H](N)C(=O)O.O=C(O)Cc1ccccc1` [L-ornithine phenyl acetate] the approximated solubility (remaining solvent systems (organic solvents, some with 1% H2O)) was “substantially insoluble”, the approximated solubility (water) was “exhibited a solubility in water” and the “Results (crystalline form)” value ([1]; Test 2, Controlled Cool (4° C.), cyclohexanone) was “No Solid”. For the same molecule, the “Results (crystalline form)” value ([1]; Test 3, Controlled Cool (−21° C.), cyclohexanone) was “Form V”, the “Results (crystalline form)” value ([1]; Test 13, Controlled Cool (4° C.), ethanol/acetone (50:50)) was “No Solid” and the “Results (crystalline form)” value ([1]; Test 14, Controlled Cool (−21° C.), ethanol/acetone (50:50)) was “Form III”. The “Results (crystalline form)” value ([1]; Test 24, Controlled Cool (4° C.), acetic acid) was “No Solid”, the “Results (crystalline form)” value ([1]; Test 25, Controlled Cool (−21° C.), acetic acid) was “No Solid” and the “Results (crystalline form)” value ([1]; Test 35, Controlled Cool (4° C.), 1-propanol) was “Form II”. The “Results (crystalline form)” value ([1]; Test 36, Controlled Cool (−21° C.), 1-propanol) was “Form II”, the “Results (crystalline form)” value ([1]; Test 46, Controlled Cool (4° C.), dimethylcarbonate) was “No Solid” and the “Results (crystalline form)” value ([1]; Test 47, Controlled Cool (−21° C.), dimethylcarbonate) was “Form II”. For the same molecule, the “Results (crystalline form)” value ([1]; Test 57, Controlled Cool (4° C.), NMP) was “Form II”, the “Results (crystalline form)” value ([1]; Test 58, Controlled Cool (−21° C.), NMP) was “Form II” and the “Results (crystalline form)” value ([1]; Test 68, Controlled Cool (4° C.), EtOAc/cyclohexane (1:2)) was “No Solid”. The “Results (crystalline form)” value ([1]; Test 69, Controlled Cool (−21° C.), EtOAc/cyclohexane (1:2)) was “No Solid”, the “Results (crystalline form)” value ([1]; Test 79, Controlled Cool (4° C.), etOAc/toluene (1:2)) was “No Solid” and the “Results (crystalline form)” value ([1]; Test 80, Controlled Cool (−21° C.), etOAc/toluene (1:2)) was “Form II”. For the same molecule, the “Results (crystalline form)” value ([1]; Test 90, Controlled Cool (4° C.), IPA/diisopropyl ether (1:2)) was “Form V”, the “Results (crystalline form)” value ([1]; Test 91, Controlled Cool (−21° C.), IPA/diisopropyl ether (1:2)) was “Form II” and the “Results (crystalline form)” value ([1]; Test 101, Controlled Cool (4° C.), DIPE) was “No Solid”. For the same molecule, the “Results (crystalline form)” value ([1]; Test 102, Controlled Cool (−21° C.), DIPE) was “Form V”, the “Results (crystalline form)” value ([1]; Test 112, Controlled Cool (4° C.), nitromethane/water (20%)) was “No Solid” and the “Results (crystalline form)” value ([1]; Test 113, Controlled Cool (−21° C.), nitromethane/water (20%)) was “No Solid”. For the same molecule, the “Results (crystalline form)” value ([1]; Test 123, Controlled Cool (4° C.), acetone/water (20%)) was “Form II”, the “Results (crystalline form)” value ([1]; Test 124, Controlled Cool (−21° C.), acetone/water (20%)) was “Form II” and the “Results (crystalline form)” value ([1]; Test 134, Controlled Cool (4° C.), 1,4 dioxane/water (20%)) was “Form II”. For the same molecule, the “Results (crystalline form)” value ([1]; Test 135, Controlled Cool (−21° C.), 1,4 dioxane/water (20%)) was “No Solid”, the “Results (crystalline form)” value ([1]; Test 145, Controlled Cool (4° C.), diethyl ether) was “No Solid” and the “Results (crystalline form)” value ([1]; Test 146, Controlled Cool (−21° C.), diethyl ether) was “No Solid”. The “Results (crystalline form)” value ([1]; Test 156, Controlled Cool (4° C.), ethylene glycol) was “No Solid”, the “Results (crystalline form)” value ([1]; Test 157, Controlled Cool (−21° C.), ethylene glycol) was “No Solid” and the “Results (crystalline form)” value ([1]; Test 167, Controlled Cool (4° C.), meOAc/water (20%)) was “No Solid”. For the same molecule, the “Results (crystalline form)” value ([1]; Test 168, Controlled Cool (−21° C.), meOAc/water (20%)) was “No Solid”, the “Results (crystalline form)” value ([1]; Test 178, Controlled Cool (4° C.), meOH/acetone (50:50)) was “No Solid” and the “Results (crystalline form)” value ([1]; Test 179, Controlled Cool (−21° C.), meOH/acetone (50:50)) was “No Solid”. The “Results (crystalline form)” value ([1]; Test 189, Controlled Cool (4° C.), DMF) was “Form II”, the “Results (crystalline form)” value ([1]; Test 190, Controlled Cool (−21° C.), DMF) was “Form II” and the “Results (crystalline form of precipitate)” value ([1]; Test 200, Controlled Cool (4° C.), solvent 2-butanol) was “No Solid”. The “Results (crystalline form of precipitate)” value ([1]; Test 201, Controlled Cool (−21° C.), solvent 2-butanol) was “No Solid”, the “Results (crystalline form of precipitate)” value ([1]; Test 211, Controlled Cool (4° C.), solvent cumene) was “No Solid” and the “Results (crystalline form of precipitate)” value ([1]; Test 212, Controlled Cool (−21° C.), solvent cumene) was “No Solid”. The “Results (crystalline form of precipitate)” value ([1]; Test 222, Controlled Cool (4° C.), solvent ethyl formate) was “No Solid”, the “Results (crystalline form of precipitate)” value ([1]; Test 223, Controlled Cool (−21° C.), solvent ethyl formate) was “Form II” and the “Results (crystalline form of precipitate)” value ([1]; Test 233, Controlled Cool (4° C.), solvent isobutyl acetate) was “No Solid”. The “Results (crystalline form of precipitate)” value ([1]; Test 234, Controlled Cool (−21° C.), solvent isobutyl acetate) was “Form II”, the “Results (crystalline form of precipitate)” value ([1]; Test 244, Controlled Cool (4° C.), solvent 3-methyl-1-butanol) was “No Solid” and the “Results (crystalline form of precipitate)” value ([1]; Test 245, Controlled Cool (−21° C.), solvent 3-methyl-1-butanol) was “No Solid”. For the same molecule, the “Results (crystalline form of precipitate)” value ([1]; Test 255, Controlled Cool (4° C.), solvent anisole) was “No Solid”, the “Results (crystalline form of precipitate)” value ([1]; Test 256, Controlled Cool (−21° C.), solvent anisole) was “Form II” and the “Results (crystalline form of precipitate)” value ([1]; Test 266, Controlled Cool (4° C.), solvent IPA/isopropyl acetate (1:2)) was “No Solid”. For the same molecule, the “Results (crystalline form of precipitate)” value ([1]; Test 267, Controlled Cool (−21° C.), solvent IPA/isopropyl acetate (1:2)) was “No Solid”, the “Results (crystalline form of precipitate)” value ([1]; Test 277, Controlled Cool (4° C.), solvent EtOH: 1% H20) was “No Solid” and the “Results (crystalline form of precipitate)” value ([1]; Test 278, Controlled Cool (−21° C.), solvent EtOH: 1% H20) was “No Solid”. The “Results (crystalline form of precipitate)” value ([1]; Test 288, Controlled Cool (4° C.), solvent EtOH: 3% H20) was “No Solid”, the “Results (crystalline form of precipitate)” value ([1]; Test 289, Controlled Cool (−21° C.), solvent EtOH: 3% H20) was “No Solid” and the “Results (crystalline form of precipitate)” value ([1]; Test 299, Controlled Cool (4° C.), solvent EtOH: 5% H20) was “No Solid”. The “Results (crystalline form of precipitate)” value ([1]; Test 300, Controlled Cool (−21° C.), solvent EtOH: 5% H20) was “No Solid”, the “Results (crystalline form of precipitate)” value ([1]; Test 310, Controlled Cool (4° C.), solvent IPA: 1% H20) was “No Solid” and the “Results (crystalline form of precipitate)” value ([1]; Test 311, Controlled Cool (−21° C.), solvent IPA: 1% H20) was “No Solid”. For the same molecule, the “Results (crystalline form of precipitate)” value ([1]; Test 321, Controlled Cool (4° C.), solvent IPA: 3% H20) was “No Solid”, the “Results (crystalline form of precipitate)” value ([1]; Test 322, Controlled Cool (−21° C.), solvent IPA: 3% H20) was “No Solid” and the “Results (crystalline form of precipitate)” value ([1]; Test 332, Controlled Cool (4° C.), solvent IPA: 5% H20) was “No Solid”. For the same molecule, the “Results (crystalline form of precipitate)” value ([1]; Test 333, Controlled Cool (−21° C.), solvent IPA: 5% H20) was “No Solid”, the “Results (crystalline form of precipitate)” value ([1]; Test 343, Controlled Cool (4° C.), solvent ACN: 1% H20) was “No Solid” and the “Results (crystalline form of precipitate)” value ([1]; Test 344, Controlled Cool (−21° C.), solvent ACN: 1% H20) was “No Solid”. The “Results (crystalline form of precipitate)” value ([1]; Test 354, Controlled Cool (4° C.), solvent ACN: 6% H20) was “No Solid”, the “Results (crystalline form of precipitate)” value ([1]; Test 355, Controlled Cool (−21° C.), solvent ACN: 6% H20) was “No Solid” and the “Results (crystalline form of precipitate)” value ([1]; Test 365, Controlled Cool (4° C.), solvent ACN: 12% H20) was “No Solid”. The “Results (crystalline form of precipitate)” value ([1]; Test 366, Controlled Cool (−21° C.), solvent ACN: 12% H20) was “No Solid”, the “Results (crystalline form of precipitate)” value ([1]; Test 376, Controlled Cool (4° C.), solvent DMF: 5% H20) was “No Solid” and the “Results (crystalline form of precipitate)” value ([1]; Test 377, Controlled Cool (−21° C.), solvent DMF: 5% H20) was “No Solid”. For the same molecule, the “Results (crystalline form of precipitate)” value ([1]; Test 387, Controlled Cool (4° C.), solvent DMF: 15% H20) was “No Solid”, the “Results (crystalline form of precipitate)” value ([1]; Test 388, Controlled Cool (−21° C.), solvent DMF: 15% H20) was “No Solid” and the “Results (crystalline form of precipitate)” value ([1]; Test 398, Controlled Cool (4° C.), solvent DMF: 30% H20) was “Form II”. The “Results (crystalline form of precipitate)” value ([1]; Test 399, Controlled Cool (−21° C.), solvent DMF: 30% H20) was “Form II”, the “Results (crystalline form of precipitate)” value ([1]; Test 409, Controlled Cool (4° C.), 1,4-dioxane: 1% H20) was “No Solid” and the “Results (crystalline form of precipitate)” value ([1]; Test 410, Controlled Cool (−21° C.), 1,4-dioxane: 1% H20) was “No Solid”. For the same molecule, the “Results (crystalline form of precipitate)” value ([1]; Test 420, Controlled Cool (4° C.), 1,4-dioxane: 3% H20) was “No Solid”, the “Results (crystalline form of precipitate)” value ([1]; Test 421, Controlled Cool (−21° C.), 1,4-dioxane: 3% H20) was “No Solid” and the “Results (crystalline form of precipitate)” value ([1]; Test 431, Controlled Cool (4° C.), 1,4-dioxane: 10% H20) was “No Solid”. The “Results (crystalline form of precipitate)” value ([1]; Test 432, Controlled Cool (−21° C.), 1,4-dioxane: 10% H20) was “No Solid”, the “Results (crystalline form of precipitate)” value ([1]; Test 442, Controlled Cool (4° C.), MeOH: 5% H20) was “No Solid” and the “Results (crystalline form of precipitate)” value ([1]; Test 443, Controlled Cool (−21° C.), MeOH: 5% H20) was “No Solid”. The “Results (crystalline form of precipitate)” value ([1]; Test 453, Controlled Cool (4° C.), MeOH: 20% H20) was “Form II” and the “Results (crystalline form of precipitate)” value ([1]; Test 454, Controlled Cool (−21° C.), MeOH: 20% H20) was “Form II”.
